Measured values as given in PubChem BioAssay AID186 (DTP/NCI, 2004).
Values are animals surviving of animals treated; these mice carried no tumour. Survivors were counted at the toxicity check, usually on the fifth day, unless a day is given; later deaths do not show. Schedules are NCI's codes, taken here to give the interval after Q, in days (D) or hours (H), and the number of doses after X. Signs of the kind (2×) give the number of equal values in this list. Some entries hold several experiments; the results are listed from low to high.

Tested on: B6D2F1 mice, nontumored toxicity test, survival
Test: NCI In Vivo Anticancer Drug Screen. Data for tumor model Nontumored Animals (Toxicity Test) in B6D2F1 (BDF1) mice

`O=C1N[C@@H]([C@H]2CC[C@H](Cl)CN2)C(=O)N[C@H]1[C@H]1CC[C@H](Cl)CN1` was tested, and the survivor count (dose: 0.25 mg/kg/injection, schedule: Q03HX008 (ip), vehicle: saline) was 8 of 8, the survivor count (dose: 0.25 mg/kg/injection, schedule: Q03HX016 (ip), vehicle: saline) was 8 of 8 and the survivor count (dose: 0.5 mg/kg/injection, schedule: Q01DX009 (ip), vehicle: saline) was 8 of 8. For the same compound, the survivor count (dose: 0.5 mg/kg/injection, schedule: Q01DX009 (sc), vehicle: saline) was 8 of 8, the survivor count (dose: 0.5 mg/kg/injection, schedule: Q03HX008 (ip), vehicle: saline) was 8 of 8 and the survivor count (dose: 0.5 mg/kg/injection, schedule: Q03HX016 (ip), vehicle: saline) was 8 of 8. The survivor count (dose: 1.0 mg/kg/injection, schedule: Q01DX001 (ip), vehicle: saline) was 8 of 8, the survivor count (dose: 1.0 mg/kg/injection, schedule: Q01DX009 (ip), vehicle: saline) was 8 of 8 and the survivor count (dose: 1.0 mg/kg/injection, schedule: Q01DX009 (sc), vehicle: saline) was 8 of 8. For the same compound, the survivor count (dose: 1.0 mg/kg/injection, schedule: Q03HX008 (ip), vehicle: saline) was 8 of 8, the survivor count (dose: 1.0 mg/kg/injection, schedule: Q03HX016 (ip), vehicle: saline) was 8 of 8 and the survivor count (dose: 1.0 mg/kg/injection, schedule: Q04DX003 (ip), vehicle: saline) was 8 of 8. For the same compound, the survivor count (dose: 1.5 mg/kg/injection, schedule: Q01DX009 (ip), vehicle: saline) was 10 of 10, the survivor count (dose: 2.0 mg/kg/injection, schedule: Q01DX001 (ip), vehicle: saline) was 8 of 8 and the survivor count (dose: 2.0 mg/kg/injection, schedule: Q01DX001 (sc), vehicle: saline) was 8 of 8. For the same compound, the survivor count (dose: 2.0 mg/kg/injection, schedule: Q01DX009 (ip), vehicle: saline) was 8 of 8, the survivor count (dose: 2.0 mg/kg/injection, schedule: Q01DX009 (oral), vehicle: saline) was 8 of 8 and the survivor count (dose: 2.0 mg/kg/injection, schedule: Q01DX009 (sc), vehicle: saline) was 8 of 8. For the same compound, the survivor count (dose: 2.0 mg/kg/injection, schedule: Q03HX008 (ip), vehicle: saline) was 7 of 8, the survivor count (dose: 2.0 mg/kg/injection, schedule: Q03HX016 (ip), vehicle: saline) was 8 of 8 and the survivor count (dose: 2.0 mg/kg/injection, schedule: Q04DX003 (ip), vehicle: saline) was 8 of 8. For the same compound, the survivor count (dose: 2.0 mg/kg/injection, schedule: Q08DX002 (ip), vehicle: saline) was 8 of 8, the survivor count (dose: 2.2 mg/kg/injection, schedule: Q01DX009 (ip), vehicle: saline) was 10 of 10 and the survivor count (dose: 2.6 mg/kg/injection, schedule: Q01DX009 (ip), vehicle: saline) was 10 of 10. For the same compound, the survivor count (dose: 4.0 mg/kg/injection, schedule: Q01DX001 (ip), vehicle: saline) was 8 of 8, the survivor count (dose: 4.0 mg/kg/injection, schedule: Q01DX001 (oral), vehicle: saline) was 8 of 8 and the survivor count (dose: 4.0 mg/kg/injection, schedule: Q01DX001 (sc), vehicle: saline) was 8 of 8. For the same compound, the survivor count (dose: 4.0 mg/kg/injection, schedule: Q01DX009 (ip), vehicle: saline) was 10 of 10 and 8 of 8, the survivor count (dose: 4.0 mg/kg/injection, schedule: Q01DX009 (oral), vehicle: saline) was 8 of 8 and the survivor count (dose: 4.0 mg/kg/injection, schedule: Q01DX009 (sc), vehicle: saline) was 8 of 8. The survivor count (dose: 4.0 mg/kg/injection, schedule: Q04DX003 (ip), vehicle: saline) was 8 of 8, the survivor count (dose: 4.0 mg/kg/injection, schedule: Q08DX002 (ip), vehicle: saline) was 8 of 8 and the survivor count (dose: 4.4 mg/kg/injection, schedule: Q01DX001 (ip), vehicle: saline) was 10 of 10 (2×). For the same compound, the survivor count (dose: 6.7 mg/kg/injection, schedule: Q01DX001 (ip), vehicle: saline) was 10 of 10 (2×), the survivor count (dose: 8.0 mg/kg/injection, schedule: Q01DX001 (ip), vehicle: saline) was 8 of 8 and the survivor count (dose: 8.0 mg/kg/injection, schedule: Q01DX001 (oral), vehicle: saline) was 8 of 8. For the same compound, the survivor count (dose: 8.0 mg/kg/injection, schedule: Q01DX001 (sc), vehicle: saline) was 8 of 8, the survivor count (dose: 8.0 mg/kg/injection, schedule: Q01DX009 (oral), vehicle: saline) was 7 of 8 and the survivor count (dose: 8.0 mg/kg/injection, schedule: Q04DX003 (ip), vehicle: saline) was 8 of 8. For the same compound, the survivor count (dose: 8.0 mg/kg/injection, schedule: Q08DX002 (ip), vehicle: saline) was 8 of 8, the survivor count (dose: 10.0 mg/kg/injection, schedule: Q01DX001 (ip), vehicle: saline) was 9 of 10 and 10 of 10 and the survivor count (dose: 16.0 mg/kg/injection, schedule: Q01DX001 (ip), vehicle: saline) was 6 of 8. The survivor count (dose: 16.0 mg/kg/injection, schedule: Q01DX001 (oral), vehicle: saline) was 8 of 8, the survivor count (dose: 16.0 mg/kg/injection, schedule: Q01DX001 (sc), vehicle: saline) was 8 of 8 and the survivor count (dose: 16.0 mg/kg/injection, schedule: Q01DX009 (oral), vehicle: saline) was 8 of 8. The survivor count (dose: 16.0 mg/kg/injection, schedule: Q08DX002 (ip), vehicle: saline) was 6 of 8, the survivor count (dose: 32.0 mg/kg/injection, schedule: Q01DX001 (oral), vehicle: saline) was 8 of 8 and the survivor count (dose: 125.0 micrograms/kg/injection, schedule: Q03HX024 (ip), vehicle: saline) was 8 of 8. For the same compound, the survivor count (dose: 250.0 micrograms/kg/injection, schedule: Q03HX024 (ip), vehicle: saline) was 7 of 8, the survivor count (dose: 500.0 micrograms/kg/injection, schedule: Q03HX024 (ip), vehicle: saline) was 8 of 8 and the survivor count (dose: 1000.0 micrograms/kg/injection, schedule: Q03HX024 (ip), vehicle: saline) was 8 of 8.

In the case of `S=c1nc[nH]c2nc[nH]c12`, the survivor count (dose: 9.38 mg/kg/injection, schedule: Q01DX009 (ip), vehicle: alkali diluted with water) is reported as 5 of 5, the survivor count (dose: 11.25 mg/kg/injection, schedule: Q03HX015 (ip), vehicle: saline) is reported as 8 of 8 and the survivor count (dose: 18.8 mg/kg/injection, schedule: Q01DX009 (ip), vehicle: alkali diluted with water) is reported as 5 of 5. For the same compound, the survivor count (dose: 22.5 mg/kg/injection, schedule: Q03HX015 (ip), vehicle: saline) was 8 of 8, the survivor count (dose: 37.5 mg/kg/injection, schedule: Q01DX009 (ip), vehicle: alkali diluted with water) was 5 of 5 and the survivor count (dose: 60.0 mg/kg/injection, schedule: Q01HX006 (ip), vehicle: saline) was 8 of 8. For the same compound, the survivor count (dose: 60.0 mg/kg/injection, schedule: Q08DX002 (ip), vehicle: saline) was 8 of 8, the survivor count (dose: 75.0 mg/kg/injection, schedule: Q01DX009 (ip), vehicle: alkali diluted with water) was 5 of 5 and the survivor count (dose: 90.0 mg/kg/injection, schedule: Q01DX005 (ip), vehicle: saline) was 8 of 8. For the same compound, the survivor count (dose: 90.0 mg/kg/injection, schedule: Q01HX006 (ip), vehicle: saline) was 8 of 8, the survivor count (dose: 90.0 mg/kg/injection, schedule: Q08DX002 (ip), vehicle: saline) was 8 of 8 and the survivor count (dose: 120.0 mg/kg/injection, schedule: Q01HX006 (ip), vehicle: saline) was 8 of 8. For the same compound, the survivor count (dose: 150.0 mg/kg/injection, schedule: Q01DX009 (ip), vehicle: alkali diluted with water) was 5 of 5, the survivor count (dose: 180.0 mg/kg/injection, schedule: Q01DX005 (ip), vehicle: saline) was 8 of 8 and the survivor count (dose: 180.0 mg/kg/injection, schedule: Q08DX002 (ip), vehicle: saline) was 8 of 8. The survivor count (dose: 270.0 mg/kg/injection, schedule: Q08DX002 (ip), vehicle: saline) was 8 of 8 and the survivor count (dose: 360.0 mg/kg/injection, schedule: Q08DX002 (ip), vehicle: saline) was 8 of 8.

With `CCOC(=O)C(CC(C)C)NC(=O)C(Cc1ccc(N(CCCl)CCCl)cc1)NC(C)=O` (configuration not stated) the survivor count (dose: 62.5 mg/kg/injection, schedule: Q01DX001 (oral), vehicle: alcohol) was 10 of 10, the survivor count (dose: 125.0 mg/kg/injection, schedule: Q01DX001 (oral), vehicle: alcohol) was 9 of 10 and the survivor count (dose: 250.0 mg/kg/injection, schedule: Q01DX001 (oral), vehicle: alcohol) was 10 of 10. For the same compound, the survivor count (dose: 500.0 mg/kg/injection, schedule: Q01DX001 (oral), vehicle: alcohol) was 10 of 10.
